Assay results as given in PubChem BioAssay AID540276 (National Center for Advancing Translational Sciences (NCATS), 2011).
The whole screen tested about 300,000 compounds, of which about 5,400 (1.8%) were called active. Inconclusive results, whose numbers are uncertain, are shown with a selection of clear calls. The call rests on the fitted dose curve; tested in HEK293 cells. A potency beside an inconclusive call is a rough fit, not a confirmed value.

Experiment: qHTS for inhibitors of binding or entry into cells for Marburg Virus
Conditions: Marburg virus pseudotyped entry inhibition, cell reporter; series mostly up to 37.8 µM
Potency means the concentration at half of the fitted maximal effect.

SMILES | Potency
CCCCN=c1scc(-c2ccc3c(c2)NC(=O)CO3)n1N=C1CCCC1 | inconclusive: 13 µM [inhibitor, partial curve]
CCNC(=O)Cn1cnc2c1c(=O)n(C)c(=O)n2C | inactive
O=C(NCc1ccc(F)cc1)c1cc2c(=O)n3ccccc3nc2s1 | inconclusive: 35.5 µM [activator, single point]
Cc1ccc(CNC(=O)Cn2c(=O)n(-c3ccc(Cl)cc3)c(=O)c3c(C)c(C)sc32)cc1 | inactive
O=C(NCc1ccccc1)c1nn(-c2ccccc2)nc1CO | inconclusive: 6.31 µM [inhibitor, single point]
C[C@@H](NC(=O)c1coc(=O)c(Br)c1)c1ccccc1 | inconclusive: 10 µM [inhibitor, partial curve, poor fit]
COCCCC1CCN(C(=O)C2CCC(=O)N(Cc3cccc(F)c3)C2)CC1 (stereo not given) | inconclusive: 39.8 µM [inhibitor, partial curve, poor fit]
Cc1ccc(NC(=O)CN2C(=O)S/C(=C/c3ccncc3)C2=O)cc1 | inconclusive: 1 µM [inhibitor, partial curve, poor fit]
COc1ccc(Cl)cc1-c1nc(SCC(=O)NCCN2C(=O)CSC2=O)n[nH]1 | inconclusive: 35.5 µM [activator, single point]
Cc1ccc(NC(=O)CSc2ccc(Br)cc2)cc1S(=O)(=O)N1CCOCC1 | inconclusive: 35.5 µM [inhibitor, single point]
CCCCCCCCCCC/C=C\C(C)(C)/C=C\CCCC(=O)O | inconclusive: 20 µM [inhibitor, partial curve, poor fit]
COc1cc(C(C)=O)ccc1OCc1nnc(-c2ccccc2Br)o1 | inconclusive: 35.5 µM [inhibitor, single point]
CCN1CCOC(=O)C1CC(=O)Nc1cc(C)cc(C)c1 (stereo not given) | inactive
CCc1nnc(NS(=O)(=O)c2ccc(NC(=S)NC(=O)c3ccccc3)cc2)s1 | inconclusive: 0.126 µM [activator, partial curve, poor fit]
Cn1c(-n2cccc2)c(-c2c(-c3ccccc3)[nH]c3c2c(=O)n(C)c(=O)n3C)c(=O)n(C)c1=O | inactive
CCOC(=O)c1c(NC(=O)CSc2nnc(Cc3ccccc3)o2)sc(C(C)=O)c1C | inactive
O=C(c1ccc2oc(CCCc3ccccc3)nc2c1)N1CCCCC1CO (stereo not given) | inactive
Cc1ccc2c(c1)sc1nc(=O)n(-c3ccccc3)c(=O)n12 | inconclusive: 0.794 µM [activator, full curve, poor fit]
Cc1cc2c(cc1C)N(C(=O)CN1C(=O)c3ccccc3C1=O)C(C)(C)c1ssc(=S)c1-2 | inconclusive: 22.4 µM [inhibitor, partial curve, poor fit]
Cc1cccn2c(CN3CCSCC3)c(C(=O)N3CCOCC3)nc12 | inactive
COc1ccc(C(=O)NNC(=S)NC(=O)/C=C/c2cccs2)cc1 | inactive
COc1ccc(-c2n[nH]c(C(F)(F)F)c2-c2cc3ccccc3o2)c(O)c1 | inconclusive: 10.3 µM [inhibitor, partial curve, poor fit]
COc1ccccc1NC(=S)NCCc1c[nH]c2ccccc12 | inconclusive: 35.5 µM [inhibitor, single point]

SMILES | Potency
COc1ccccc1OCc1cc(C(=O)N(C)CCC2CCCCO2)no1 (stereo not given) | inactive
CCOc1ccccc1NC(=O)CN1C(=O)CC(c2ccc(OC)c(OC)c2)Sc2ccccc21 (stereo not given) | inconclusive: 35.5 µM [inhibitor, single point]
Cc1c(-c2ccc(Br)cc2)nc2ccccn12 | inconclusive: 0.631 µM [activator, partial curve, poor fit]
COC(=O)C1CC(=O)N(c2ccc(OCc3ccccc3Cl)cc2)C1 (stereo not given) | inactive
COc1ccc(C2CCCCCN2C(=O)C2CCN(S(=O)(=O)c3cccc(C(C)=O)c3)CC2)cc1 (stereo not given) | inconclusive: 11.2 µM [inhibitor, partial curve]
Cc1ccc(S(=O)(=O)Nc2ccc(C(OC(=O)c3ccccc3[N+](=O)[O-])(C(F)(F)F)C(F)(F)F)cc2)cc1 | inconclusive: 20 µM [inhibitor, single point]
Cc1cc(C)n2nc(C(=O)OCC(=O)N3CCC3)nc2n1 | inconclusive: 3.16 µM [inhibitor, partial curve, poor fit]
CCc1sc(C(=O)NC2CCN(C)CC2)cc1Br | inconclusive: 0.0891 µM [inhibitor, full curve, poor fit]
C=CCc1ccc(OCc2ccc(C(=O)O)o2)c(OC)c1 | inconclusive: 7.08 µM [inhibitor, partial curve, poor fit]
CCOC(=O)c1nn(-c2ccc(C)cc2)cc1O | inconclusive: 35.5 µM [inhibitor, single point]
O=C(c1ccc2c(c1)OCO2)N1CCc2ccccc21 | inconclusive: 17.8 µM [activator, partial curve, poor fit]
COc1cc(NC(=O)CSc2nc3cc(C)ccc3cc2C)c(C(=O)O)cc1OC | inactive
CCn1c2ccccc2c2cc(/C=N/n3c(-c4cc(C)[nH]n4)n[nH]c3=S)ccc21 | active: 5.01 µM
O=C(Nc1ccccc1)N1CCN(c2ccc(F)cc2)CC1 | inactive
CCN1CCN(C(=O)c2ccc(CN(c3ccc(C)c(C)c3)S(C)(=O)=O)cc2)CC1 | inactive
O=C(NNc1nc2ccccc2s1)c1ccc(F)cc1 | inconclusive: 6.51 µM [inhibitor, partial curve, poor fit]
COc1ccc(OC)c(C(C)NC(=O)c2ccc(Br)cc2)c1 (stereo not given) | inactive
CC1=CCC(C(=O)O)C(C(=O)O)C1 (stereo not given) | inactive
O=C1c2cccc(OCc3ccc(F)cc3)c2CCN1Cc1ccccc1 | inconclusive: 17.8 µM [inhibitor, single point]
COc1cc(OC)c(C2Nc3c(C)cccc3-c3cc(C)nn32)cc1OC (stereo not given) | inconclusive: 6.31 µM [inhibitor, partial curve, poor fit]
O=C1N=CC(F)C(=O)N1 (stereo not given) | inactive
O=C(NCC(=O)N1CCN(c2cccc(Cl)c2)CC1)c1ccc(Br)o1 | inconclusive: 11.2 µM [inhibitor, partial curve]

A second format for 2 compounds above.
CC1=CCC(C(=O)O)C(C(=O)O)C1 (stereo not given)
  Potency: inactive
O=C1c2cccc(OCc3ccc(F)cc3)c2CCN1Cc1ccccc1
  Potency: inconclusive: 17.8 µM [inhibitor, single point]
